# Test results as given in PubChem BioAssay AID488837 (National Center for Advancing Translational Sciences (NCATS), 2010).
# Amino acid sequences for entries named in this document (tags omitted). A change or cut given only in a name is not applied to a line headed by its entry.
# UniProt O00167: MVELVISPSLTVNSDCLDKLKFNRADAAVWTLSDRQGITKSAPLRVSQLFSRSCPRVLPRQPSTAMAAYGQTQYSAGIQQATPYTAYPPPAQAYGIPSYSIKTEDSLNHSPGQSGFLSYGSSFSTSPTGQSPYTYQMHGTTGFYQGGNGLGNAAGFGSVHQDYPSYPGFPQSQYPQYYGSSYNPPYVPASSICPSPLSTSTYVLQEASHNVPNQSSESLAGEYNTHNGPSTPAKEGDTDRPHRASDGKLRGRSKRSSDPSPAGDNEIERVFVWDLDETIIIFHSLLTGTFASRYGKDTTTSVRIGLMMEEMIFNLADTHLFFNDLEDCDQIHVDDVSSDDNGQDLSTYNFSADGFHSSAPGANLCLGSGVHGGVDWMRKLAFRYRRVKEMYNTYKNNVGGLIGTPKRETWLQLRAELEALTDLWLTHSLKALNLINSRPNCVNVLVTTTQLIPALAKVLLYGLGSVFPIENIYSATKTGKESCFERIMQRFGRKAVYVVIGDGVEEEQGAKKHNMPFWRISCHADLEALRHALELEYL
# Screen size: about 330,000 compounds; about 20 (0.006%) were called active. Inconclusive results, whose numbers are uncertain, are shown with a selection of clear calls. Calls follow the shape of the dose curve; as a rule, active = well fitted inhibition curve with a large enough effect; inconclusive = small, poorly fitted or top-dose-only effect, or effect the other way; inactive = flat fitted curve, though single readings scatter. Potencies of inconclusive entries are doubtful fits and often do not repeat.
# Molecular target: Protein phosphatase EYA2 (Homo sapiens) (UniProt O00167)
# Experiment: qHTS Assay for Inhibitors of the Phosphatase Activity of Eya2
# Conditions: recombinant Eya2, OMFP fluorescence dephosphorylation (OMFP is methylfluorescein phosphate); activity, negative = inhibition: at 76.9 µM (top of the series) unless noted
# Method in brief: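 Eya2 protein (added as 0.2 uM solution) was preincubated with compound for 10 min at ambient temperature in 50 mM HEPES pH 7.5, 50 mM NaCl, 5 uM MgCl2, 0.05% BSA, 1 mM DTT. OMFP (added at 50 uM) then reacted 10 min; fluorescence read at 485/525 nm.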
# % is scaled to controls: 0 for no effect and ±100 for the full control effect; potency is read from the fitted curve at half-maximal effect.
Compound,Potency,"activity, negative = inhibition"
COc1ccc(C(CCNCc2ccc(OC)c(OC)c2)c2ccc(F)cc2)cc1 (stereo not drawn),"inconclusive: 100 µM [inhibitor, single point]",–
CC(=O)N1CC(C)Oc2ccc(S(=O)(=O)NC(CC(=O)O)c3ccccc3C)cc21 (stereo not drawn),"inconclusive: 22.4 µM [inhibitor, single point]",–
O=c1c2ccccc2c(-c2ccc(F)cc2)nn1-c1ccc(C(F)(F)F)cc1,"inconclusive: 141 µM [inhibitor, partial curve, poor fit]",–
O=c1cc(CO)oc(C(Nc2ccccn2)c2cccc(F)c2)c1O (stereo not drawn),–,inactive: -3.59%
CCOc1ccc(NC(=O)Nc2cc(C(C)C)ccc2C)cc1,"inconclusive: 70.8 µM [inhibitor, partial curve, poor fit]",–
Cc1ccc2nc(-c3ccc(NC(=O)Cc4cccs4)cc3)[nH]c2c1,–,inactive: -12.8%
Cc1cc2c(cc1C)CSC(c1ccc(O)cc1)SC2,"inconclusive: 79.4 µM [inhibitor, partial curve]",–
CCC12CSc3nc(Cl)ccc3N1C(=O)C(=O)N2C (stereo not drawn),"inconclusive: 89.1 µM [inhibitor, single point]",–
C=C(C)COc1ccc(-c2n[nH]c(C)c2-c2ccc(OC)cc2)c(O)c1,"inconclusive: 100 µM [inhibitor, single point]",–
COc1ccc(NC(=O)CS(=O)(=O)c2cn(CC(=O)N(C(C)C)C(C)C)c3ccccc23)c(OC)c1,–,inactive: 1.27%
COc1cc(N2CCCC2)c(OC)cc1/C=c1/sc2nc3ccccc3n2c1=O,–,inactive: 9.81%
COc1ccccc1NC(=O)C(C)OC(=O)c1cc2ccccc2[nH]1 (stereo not drawn),"inconclusive: 158 µM [inhibitor, partial curve]",–
CCCCCOC(=O)CCN1C(=O)/C(=C2\SC(=S)N(CCC(=O)OCCCCC)C2=O)SC1=S,"inconclusive: 100 µM [inhibitor, single point]",–
CC(C)NC(=O)c1onc(CSc2cccc(F)c2)c1C(=O)O,–,inconclusive: 30.2% [activator]
COc1ccc(C(=O)NC(C)c2nnc(SCC(=O)NC3=NCCS3)n2C)cc1 (stereo not drawn),"inconclusive: 20 µM [inhibitor, single point]",–
CCn1cc(C(=O)NCC(C)C)c(=O)c2cc(F)c(N3CCN(C)CC3)cc21,"inconclusive: 17.8 µM [inhibitor, single point]",–
CSC1=NSC2=NC(=O)/C(=C/c3coc4ccccc4c3=O)C(=N)N12,–,inconclusive: 68.6% [activator]
O=C(CN1CCCC1c1ccc2c(c1)OCCO2)NC(=O)Nc1ccccc1F (stereo not drawn),"inconclusive: 14.1 µM [inhibitor, single point]",–
COc1cc(/C=C(\C#N)C(=O)c2ccc(O)c(O)c2)cc(I)c1O,"inconclusive: 100 µM [activator, partial curve]",inconclusive: 51.6% [activator]
O=C(CSc1ccccn1)Nc1ccc(N2CCOCC2)cc1,"inconclusive: 100 µM [inhibitor, partial curve, poor fit]",–
Cc1cccc(N(Cc2ccc(Cl)cc2)S(C)(=O)=O)c1,"inconclusive: 89.1 µM [inhibitor, single point]",–
Cc1ccc(CCNC(=O)C2CCN(S(=O)(=O)c3cccc4cccnc34)CC2)cc1,–,inactive: -4.2%
O=C1/C(=C/c2ccncc2)SC(=S)N1Nc1ccccc1,"inconclusive: 79.4 µM [inhibitor, single point]",–

Compound,Potency,"activity, negative = inhibition"
Cc1ccc(Cl)cc1N1CCN(C(=O)C(C)n2ncn3cccc3c2=O)CC1 (stereo not drawn),"inconclusive: 22.4 µM [inhibitor, single point]",–
CC(C)n1cc(/C=C/c2cc[n+](C)cc2)c2ccccc21,"inconclusive: 39.8 µM [activator, partial curve]",–
CCN(CCNC(=O)C1CCCN(Cc2nc(-c3ccc(OC)cc3)oc2C)C1)c1ccccc1 (stereo not drawn),–,inactive: -26.8%
O=C(CSc1ccc(-c2nc3ccccc3[nH]2)cn1)Nc1ccc(S(=O)(=O)N2CCCC2)cc1,–,inactive: 6.2%
CCOC(=O)CNC(=S)n1ncnc1N,"inconclusive: 100 µM [inhibitor, single point]",–
CN(C)c1ccc(S(=O)(=O)NCC(=O)NCc2ccccc2)cc1[N+](=O)[O-],"inconclusive: 22.4 µM [inhibitor, single point]",–
O=C(c1ccncc1)N1CCN(S(=O)(=O)c2cccc(C(F)(F)F)c2)CC1,"inconclusive: 100 µM [inhibitor, partial curve]",–
COc1ccc(N2C(=O)C3CCCN3C2c2ccc(C)cc2)cc1Cl (stereo not drawn),"inconclusive: 17.8 µM [inhibitor, single point]",–
Cc1ccc(N2C(=O)c3ccccc3NC2C(C)Cc2ccc3c(c2)OCO3)cc1 (stereo not drawn),–,inactive: 2.6%
Cn1c(SCC(=O)N/N=C/c2ccc([N+](=O)[O-])s2)nnc1-c1ccccc1,–,inactive: -3.94%
CCN(CC)c1ccc(C(=S)NCc2ccccc2)cc1,"inconclusive: 89.1 µM [inhibitor, single point]",–
COc1ccccc1CCc1nnc(CCC(=O)N(C)Cc2cccc3ncccc23)o1,"inconclusive: 126 µM [inhibitor, partial curve]",–
FC(F)(F)c1ccc(Cl)c(-n2c(-c3ccco3)n[nH]c2=S)c1,–,inconclusive: -30.9% [inhibitor]
COc1ccc(N2CCN(S(=O)(=O)c3ccc4c(c3)N(C(C)=O)CCO4)CC2)cc1,"inconclusive: 22.4 µM [inhibitor, single point]",–
CCOC(=O)C1=C(C)NC2=C(C(=O)c3ccccc32)C1c1ccc([N+](=O)[O-])o1 (stereo not drawn),–,inactive: -9.23%
COc1ccc(NC(=O)CSc2nc3[nH]c(=O)[nH]c(=O)c3s2)cc1OC,"inconclusive: 15.8 µM [inhibitor, partial curve, poor fit]",–
c1cncc(-c2nnc(-c3cccnc3)nn2)c1,–,inactive: 1.05%
COc1ccc(Nc2nc(NCc3ccco3)nc(N/N=C/c3ccccc3F)n2)cc1,–,inactive: 9.63%
O=[N+]([O-])c1ccc(Cl)cc1N/N=C/c1ccncc1,"inconclusive: 22.4 µM [inhibitor, single point]",–
NS(=O)(=O)c1ccc(NC(=O)CN2CCN(S(=O)(=O)/C=C/c3ccccc3)CC2)cc1,"inconclusive: 100 µM [inhibitor, single point]",–
COCCC(=O)N1CCC(Oc2ccc(C(=O)N(C)CCCC3CCCC3)cc2)CC1,"inconclusive: 355 µM [inhibitor, partial curve, poor fit]",–
Cc1cc(C)c(/C=N/NC(=O)c2nnn(-c3nonc3N)c2COc2ccc(F)cc2)c(C)c1,"inconclusive: 100 µM [inhibitor, single point]",–
Cc1ccc(Nc2nc(-c3sc(NC(=O)c4cccc(Cl)c4)nc3C)cs2)cc1,"inconclusive: 22.4 µM [inhibitor, single point]",–

# Taken from above:
# Value for Cn1c(SCC(=O)N/N=C/c2ccc([N+](=O)[O-])s2)nnc1-c1ccccc1 under activity, negative = inhibition: inactive: -3.94%
# Value for COc1ccccc1CCc1nnc(CCC(=O)N(C)Cc2cccc3ncccc23)o1 under Potency: inconclusive: 126 µM [inhibitor, partial curve]
# Value for CCOC(=O)C1=C(C)NC2=C(C(=O)c3ccccc32)C1c1ccc([N+](=O)[O-])o1 (stereo not drawn) under activity, negative = inhibition: inactive: -9.23%

# Later entries

Compound,Potency,"activity, negative = inhibition"
COC(=O)c1ccc(C(=O)Nc2ccc(N)cc2N)cc1,–,inactive: 2.35%
COCCNCc1ccccc1,–,inactive: 9.93%
O=c1cc(-c2ccccc2)cc(-c2ccccc2)n1CCCO,"inconclusive: 79.4 µM [inhibitor, single point]",–
O=C(Cn1c2ccccc2c2nc3n(c(=O)c21)CCS3)Nc1ccccc1C(F)(F)F,–,inactive: -10.9%
O=S(=O)(Nc1ccc(-n2cnnn2)cc1)c1ccc(Cl)cc1,"inconclusive: 17.8 µM [inhibitor, single point]",–
CCc1ccc(N2C(=O)c3ccc4c5c(ccc(c35)C2=O)CC4)cc1,"inconclusive: 28.2 µM [inhibitor, partial curve]",–
CCOC(=O)C1(Cc2cccc(OC)c2)CCN(Cc2ccon2)CC1,"inconclusive: 5010 µM [inhibitor, partial curve, poor fit]",–
C=CCN(CC(O)c1cccc([N+](=O)[O-])c1)C(C)CCc1ccccc1 (stereo not drawn),"inconclusive: 100 µM [inhibitor, single point]",–
CN1/C(=C\C=C2/SC(=S)N(CC(=O)O)C2=O)C(C)(C)c2ccccc21,"inconclusive: 25.1 µM [activator, partial curve]",–
Cn1c(SCC(=O)Nc2ccc(F)cc2)nc2c([nH]c3ccccc32)c1=O,"inconclusive: 20 µM [inhibitor, single point]",–
CCOC(=O)CSc1nnc(CNC(=O)c2cccs2)n1-c1cc(C)ccc1C,"inconclusive: 50.1 µM [inhibitor, single point]",–
NC1=NC(=O)/C(=C/c2cc(Br)c(O)c(Br)c2)S1,"inconclusive: 22.4 µM [inhibitor, single point]",–
C=CCNC(=S)/C(=C(/[O-])c1ccc([N+](=O)[O-])cc1)[n+]1ccccc1,–,inactive: -10%
CCn1c(CNC(=O)COc2ccc(C(C)C)cc2)nnc1SCC(=O)Nc1ccc(F)cc1,"inconclusive: 89.1 µM [inhibitor, single point]",–
COc1ccc(-c2cc(-c3ccccc3)nc(SCC(=O)Nc3nccs3)c2C#N)cc1,–,inactive: -20.9%
CCc1n[nH]c(=S)n1/N=C/c1ccc(N(C)c2ccccc2)cc1,–,inactive: 1.98%
COc1ccc(OCC(Cn2cnc3ccccc32)OC(C)=O)cc1 (stereo not drawn),"inconclusive: 100 µM [inhibitor, single point]",–
CC1(C)Cc2nc3sc(C(N)=O)c(N)c3cc2CO1,"inconclusive: 251 µM [inhibitor, single point]",–
Cc1ccc(-n2ncc(Cl)c2C(=O)NC2CC2)cc1,"inconclusive: 20 µM [inhibitor, single point]",–
Cc1cccc(NC(=O)[C@@H]2CCCN2C(=O)OC(C)(C)C)c1C,"inconclusive: 3160 µM [inhibitor, partial curve, poor fit]",–
CCOc1ccc(N(CC(=O)Nc2ccc(C)c(C)c2)S(=O)(=O)c2c(C)noc2C)cc1,–,inactive: -8.43%
